Source: paper PMC10232555
No constants are given. Whether binding was seen depends on the method and setting. Some results given as binding are weak or reduced against the parent protein; the word gives no strength.

Protein sequences, listed by entry. Tags and fused reporters are not part of them.
UniProt P08670: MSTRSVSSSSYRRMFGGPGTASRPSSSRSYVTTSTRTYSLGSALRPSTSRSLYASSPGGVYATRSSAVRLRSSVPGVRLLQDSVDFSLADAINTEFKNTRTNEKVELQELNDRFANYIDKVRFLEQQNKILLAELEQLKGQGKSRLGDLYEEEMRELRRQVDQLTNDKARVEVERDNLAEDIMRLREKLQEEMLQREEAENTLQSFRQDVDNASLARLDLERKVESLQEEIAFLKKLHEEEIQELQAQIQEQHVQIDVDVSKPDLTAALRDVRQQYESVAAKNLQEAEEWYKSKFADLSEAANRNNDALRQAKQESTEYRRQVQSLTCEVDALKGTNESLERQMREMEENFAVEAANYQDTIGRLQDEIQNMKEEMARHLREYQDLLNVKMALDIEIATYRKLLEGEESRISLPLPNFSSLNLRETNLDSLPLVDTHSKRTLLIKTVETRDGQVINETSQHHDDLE

Legend:
[1] = molecular target: full-length (FL) human vimentin (human) (UniProt P08670); assay: cross-linking; data not shown; 14N and 15N tetramers assembled separately in LS buffer, mixed 1:1, cross-linked with DSG and DSS, MS and LinX analysis: test of exchange of dimers between tetramers; both purified
[2] = molecular target: full-length (FL) human vimentin (human) (UniProt P08670); assay: SEC-SAXS; FL vimentin 2.8 mg/mL, Superose 6 Increase 3.2/300, 2 mM HEPES pH 8.2, 1% sucrose; both purified
[3] = molecular target: full-length (FL) human vimentin (human) (UniProt P08670); assay: cross-linking; cross-links identified by mass spectrometry; 14N and 15N dimers prepared in 6.2 M urea, mixed 1:1, dialysed into 2 mM HEPES pH 8.2; 0.3 mg/mL; DSG, DSS, DSPU, DSBU at 50x; trypsin, LC-MS, LinX; inter- or intradimeric by the α-ratio (light-only sample: 0.15 mg/mL, DSG, DSPU, DSBU at 100x); both purified

Measured: binding

full-length (FL) human vimentin (from UniProt P08670 1-466)
binds: [1] | [2] | [3]
